The source gives many values for each of these; only a part stands here.
Tests used:
Type in all cases: functional
Aspergillus fumigatus [1] = assay: Induction of change in glucosamine-fructose-6-phosphate aminotransferase protein level in iTRAQ-118 labelled cell wall fraction of drug-susceptible Aspergillus fumigatus KU80 delta-akuB at 0.12 ug/ml after 24 hrs in YPD medium by MS (MS/MS) analysis relative to control
Aspergillus fumigatus [2] = assay: Induction of change in Hsp90 binding co-chaperone (Sba1), putative protein level in iTRAQ121 labelled cell wall fraction of drug-susceptible Aspergillus fumigatus KU80 delta-akuB at 0.12 ug/ml after 48 hrs in YPD medium by MS (MS/MS) analysis relative to control
Aspergillus fumigatus [3] = assay: Induction of change in PT repeat family protein level in iTRAQ-116 labelled secreted fraction of drug-susceptible Aspergillus fumigatus KU80 delta-akuB at 0.12 ug/ml after 48 hrs in YPD medium by MS (MS/MS) analysis relative to control
Aspergillus fumigatus [4] = assay: Induction of change in endo-chitosanase pseudogene protein level in iTRAQ-116 labelled secreted fraction of drug-susceptible Aspergillus fumigatus KU80 delta-akuB at 0.12 ug/ml after 48 hrs in YPD medium by MS (MS/MS) analysis relative to control
Aspergillus fumigatus [5] = assay: Induction of change in Mn superoxide dismutase MnSOD protein level in iTRAQ-116 labelled secreted fraction of drug-susceptible Aspergillus fumigatus KU80 delta-akuB at 0.12 ug/ml after 48 hrs in YPD medium by MS (MS/MS) analysis relative to control
Aspergillus fumigatus [6] = assay: Induction of change in molecular chaperone and allergen Mod-E/Hsp90/Hsp1 protein level in iTRAQ-116 labelled secreted fraction of drug-susceptible Aspergillus fumigatus KU80 delta-akuB at 0.12 ug/ml after 48 hrs in YPD medium by MS (MS/MS) analysis relative to control
Aspergillus fumigatus [7] = assay: Induction of change in non-classical export protein (Nce2), putative gene expression in drug-susceptible Aspergillus fumigatus KU80 delta-akuB at 0.12 ug/ml after 24 hrs in YPD medium by microarray analysis relative to control
Aspergillus fumigatus [8] = assay: Induction of change in 60S ribosomal protein L1 protein level in iTRAQ114 labelled cell wall fraction of drug-susceptible Aspergillus fumigatus KU80 delta-akuB at 0.12 ug/ml after 24 hrs in YPD medium by MS (MS/MS) analysis relative to control
Aspergillus fumigatus [9] = assay: Induction of change in ribosomal protein S9 protein level in iTRAQ114 labelled cell wall fraction of drug-susceptible Aspergillus fumigatus KU80 delta-akuB at 0.12 ug/ml after 24 hrs in YPD medium by MS (MS/MS) analysis relative to control
Aspergillus fumigatus [10] = assay: Induction of change in ribosomal protein S23 protein level in iTRAQ114 labelled cell wall fraction of drug-susceptible Aspergillus fumigatus KU80 delta-akuB at 0.12 ug/ml after 24 hrs in YPD medium by MS (MS/MS) analysis relative to control
Aspergillus fumigatus [11] = assay: Induction of change in Iron-sulfur cluster assembly accessory protein subfamily, putative gene expression in drug-susceptible Aspergillus fumigatus KU80 delta-akuB at 0.12 ug/ml after 48 hrs in YPD medium by microarray analysis relative to control
Aspergillus fumigatus [12] = assay: Induction of change in ribosomal protein S9 gene expression in drug-susceptible Aspergillus fumigatus KU80 delta-akuB at 0.12 ug/ml after 24 hrs in YPD medium by microarray analysis relative to control
Aspergillus fumigatus [13] = assay: Induction of change in 40S ribosomal protein S9 protein level in iTRAQ114 labelled cell wall fraction of drug-resistant Aspergillus fumigatus EMFR-S678P at 0.12 ug/ml after 24 hrs in YPD medium by MS (MS/MS) analysis relative to control
Aspergillus fumigatus [14] = assay: Induction of change in major allergen and cytotoxin AspF1 protein level in iTRAQ114 labelled secreted fraction of drug-resistant Aspergillus fumigatus EMFR-S678P at 0.12 ug/ml after 24 hrs in YPD medium by MS (MS/MS) analysis relative to control
Aspergillus fumigatus [15] = assay: Induction of change in PT repeat family protein level in iTRAQ114 labelled secreted fraction of drug-resistant Aspergillus fumigatus EMFR-S678P at 0.12 ug/ml after 24 hrs in YPD medium by MS (MS/MS) analysis relative to control
Aspergillus fumigatus [16] = assay: Induction of change in eukaryotic translation initiation factor subunit eIF-4F, putative protein level in iTRAQ-116 labelled secreted fraction of drug-resistant Aspergillus fumigatus EMFR-S678P at 0.12 ug/ml after 48 hrs in YPD medium by MS (MS/MS) analysis relative to control
Aspergillus fumigatus [17] = assay: Induction of change in ThiJ/PfpI family protein level in iTRAQ-116 labelled secreted fraction of drug-resistant Aspergillus fumigatus EMFR-S678P at 0.12 ug/ml after 48 hrs in YPD medium by MS (MS/MS) analysis relative to control
Aspergillus fumigatus [18] = assay: Induction of change in extracellular cell wall glucanase Crf1/allergen Asp F9 protein level in iTRAQ-116 labelled secreted fraction of drug-resistant Aspergillus fumigatus EMFR-S678P at 0.12 ug/ml after 48 hrs in YPD medium by MS (MS/MS) analysis relative to control
Aspergillus fumigatus [19] = assay: Induction of change in hypothetical protein locus AFUA_5G14680 level in iTRAQ-116 labelled secreted fraction of drug-resistant Aspergillus fumigatus EMFR-S678P at 0.12 ug/ml after 48 hrs in YPD medium by MS (MS/MS) analysis relative to control
Aspergillus fumigatus [20] = assay: Induction of change in 60S ribosomal protein L23 protein level in iTRAQ114 labelled cell wall fraction of drug-susceptible Aspergillus fumigatus KU80 delta-akuB at 0.12 ug/ml after 24 hrs in YPD medium by MS (MS/MS) analysis relative to control
Aspergillus fumigatus [21] = assay: Induction of change in nuclear transport factor NTF-2, putative protein level in iTRAQ114 labelled secreted fraction of drug-susceptible Aspergillus fumigatus KU80 delta-akuB at 0.12 ug/ml after 24 hrs in YPD medium by MS (MS/MS) analysis relative to control
Aspergillus fumigatus [22] = assay: Induction of change in 14-alpha sterol demethylase Cyp51A protein level in iTRAQ-118 labelled cell wall fraction of drug-susceptible Aspergillus fumigatus KU80 delta-akuB at 0.12 ug/ml after 24 hrs in YPD medium by MS (MS/MS) analysis relative to control
Aspergillus fumigatus [23] = assay: Induction of change in cell wall biogenesis protein phosphatase Ssd1, putative protein level in iTRAQ-118 labelled cell wall fraction of drug-susceptible Aspergillus fumigatus KU80 delta-akuB at 0.12 ug/ml after 24 hrs in YPD medium by MS (MS/MS) analysis relative to control
Aspergillus fumigatus [24] = assay: Induction of change in peptidyl-prolyl cis-trans isomerase protein level in iTRAQ-118 labelled cell wall fraction of drug-susceptible Aspergillus fumigatus KU80 delta-akuB at 0.12 ug/ml after 24 hrs in YPD medium by MS (MS/MS) analysis relative to control

For `CC[C@H](C)C[C@H](C)CCCCCCCCC(=O)N[C@H]1C[C@@H](O)[C@@H](NCCN)NC(=O)[C@@H]2[C@@H](O)CCN2C(=O)[C@H]([C@H](O)CCN)NC(=O)[C@H]([C@H](O)[C@@H](O)c2ccc(O)cc2)NC(=O)[C@@H]2C[C@@H](O)CN2C(=O)[C@H]([C@@H](C)O)NC1=O` [CASPOFUNGIN], the “fold change (FC)” value (Aspergillus fumigatus [1]) was 2.5, the “fold change (FC)” value (Aspergillus fumigatus [2]) was -2.3 and the “fold change (FC)” value (Aspergillus fumigatus [3]) was -16. The “fold change (FC)” value (Aspergillus fumigatus [4]) was -7, the “fold change (FC)” value (Aspergillus fumigatus [5]) was -3.5 and the “fold change (FC)” value (Aspergillus fumigatus [6]) was -2.1. The “fold change (FC)” value (Aspergillus fumigatus [7]) was -4.9, the “fold change (FC)” value (Aspergillus fumigatus [8]) was 1.9 and the “fold change (FC)” value (Aspergillus fumigatus [9]) was 1.7. For the same molecule, the “fold change (FC)” value (Aspergillus fumigatus [10]) was 1.9, the “fold change (FC)” value (Aspergillus fumigatus [11]) was 5.7 and the “fold change (FC)” value (Aspergillus fumigatus [12]) was 3.9. The “fold change (FC)” value (Aspergillus fumigatus [13]) was -1.07, the “fold change (FC)” value (Aspergillus fumigatus [14]) was 1.23 and the “fold change (FC)” value (Aspergillus fumigatus [15]) was 1.07. The “fold change (FC)” value (Aspergillus fumigatus [16]) was -1.15, the “fold change (FC)” value (Aspergillus fumigatus [17]) was 1.07 and the “fold change (FC)” value (Aspergillus fumigatus [18]) was -1.07. The “fold change (FC)” value (Aspergillus fumigatus [19]) was -1.07, the “fold change (FC)” value (Aspergillus fumigatus [20]) was 2 and the “fold change (FC)” value (Aspergillus fumigatus [21]) was -3.7. For the same molecule, the “fold change (FC)” value (Aspergillus fumigatus [22]) was -2.6, the “fold change (FC)” value (Aspergillus fumigatus [23]) was -2.5 and the “fold change (FC)” value (Aspergillus fumigatus [24]) was -2.

Source: ChEMBL document CHEMBL1687827, “Profiling the Aspergillus fumigatus proteome in response to caspofungin” (2011)
